From patent US20230047208A1, “RNA Splicing Modulation” (The General Hospital Corporation, priority 2020, published 2023)
Further values from the same series stand in other lists.

System: wildtype (WT) human fibroblast cell lines
Assay: Transcriptome-wide splicing by RNA sequencing (RNASeq), exon triplet PSI change;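 on Effect: six WT fibroblast lines treated seven days versus DMSO vehicle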;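 on T-PSI: T-PSI is average treated PSI after seven days of treatment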
Assay type: cell-based
Parameters: key to Effect: Exclusion; Inclusion; Unchanged
From the text: FIG. 2A provides a representation of an exon triplet. Exon U is upstream of Exon X, which is upstream of Exon D. R1, R2 and R3 represent RNA sequencing (RNASeq) reads spanning the regions between two adjacent exons. UI1, I1X, XI2 and I2D are four regions flanking the four splice sites of the exon-triplet. Each flanking region consists of 25 exonic base pairs and 75 intronic base pairs.
FIG. 2B provides a volcano plot showing the ψ (PSI: Percent Spliced-In) changes in splicing after treatment with Compound (I). Each dot represents one of the 161,097 expressed exon triplets in human fibroblasts. The x axis represents the ψ changes after treatment and the y axis represents the False Discovery Rate (FDR) (log 10 transformed). […] The horizontal dashed line indicates an FDR of 0.1. The dots on the right side of the right vertical dashed line and above the horizontal dashed line represent the exon-triplets with an increase for Exon X inclusion (Δψ≥0.1 and FDR<0.1) while the dots on left side of the left vertical dashed line and above the horizontal dashed line represent an increase for Exon X exclusion (Δψ≤−0.1 and FDR<0.1). Black dots in-between the two vertical dashed lines represent exon-triplets unchanged from the treatment.
In some aspects, analysis is performed on data derived from the assay to measure the magnitude of splicing to determine the amount of exons spliced into an mRNA transcript that is produced in the presence of Compound (I) relative to the amount in the absence of Compound (I) or presence of a negative control. In a preferred aspect, the method utilized is calculation of change in Percent Spliced In (ΔPSI). […] The ΔPSI value is derived from the formula: […]
The values for “a” and “b” represent the number of reads supporting the probability for potential inclusion or exclusion of an exon in an RNA transcript. The “a” value is derived from the number of reads within an exon triplet covering, in 5′ to 3′ order: the last few bases (>1 nucleotide) of an upstream exon operably linked to the first few bases (>1 nucleotide) of a middle exon. The “b” value is derived from the number of reads within an exon triplet covering, in 5′ to 3′ order: the last few bases (>1 nucleotide) of the middle exon operably linked to the first few bases (>1 nucleotide) of a downstream exon. The number of reads will indicate whether the splice junction of a middle exon has been identified as potentially having a CNN Motif(s) by the CNN Model described herein, wherein the inclusion or exclusion of the middle exon may be modulated in the presence of Compound (I) to produce one or more mature RNA isoforms from the gene transcript. The value for “c” represents the number of reads supporting the exclusion of the middle exon.
The effect on splicing modulation and corresponding splice differences toward exon inclusion or exclusion was determined by counting the RNASeq reads covering two splice junctions of exon triplets (three consecutive exons: Exon U, Exon X, Exon D) and the corresponding intervening introns, then comparing the change in Percent Spliced In (ΔPSI or Δψ) of the middle exon (Exon X) after treatment (as shown in FIG. 2A)^52,53. 934 exon triplets were identified showing differential middle exon inclusion or exclusion in response to Compound (I) treatment. Of these, 254 were exon inclusion events (Δψ≥0.1 and FDR<0.1) and 680 were exon exclusion events (Δψ≤−0.1 and FDR<0.1) (as shown in FIG. 2B). […] The splicing results were evaluated by RT-PCR in independent replicate experiments, confirming all the calculated Δψ values. […]

[1] = CSNK1A1 Exon 148897357-148897440
[2] = CYB561D2 Exon 50389440-50389477
[3] = CYP20A1 Exon 204110569-204110618
[4] = CYP20A1 Exon 204143296-204143411
[5] = DCAF17 Exon 172330376-172330485
[6] = DCTD Exon 183837572-183837692, Intron2 183837693-183838440
[7] = DCTD Exon 183837572-183837692, Intron2 183837693-183838463
[8] = DCUN1D5 Exon 102953477-102953568
[9] = DLGAP1-AS1 Exon 3596577-3596673

In the case of `Clc1nc(NCc2ccncc2)c2cc[nH]c2n1` [Compound (I), 2-chloro-N-(pyridin-4-ylmethyl)-7H-pyrrolo[2,3-d]pyrimidin-4-amine], the Effect (CRAT Exon 131871458-131871556) is reported as “Exc”, the T-PSI (CRAT Exon 131871458-131871556) is reported as 0.424 and the ΔPSI (CRAT Exon 131871458-131871556) is reported as −0.150. For the same compound, the Effect (CREBBP Exon 3827614-3827658) was “Inc”, the T-PSI (CREBBP Exon 3827614-3827658) was 0.969 and the ΔPSI (CREBBP Exon 3827614-3827658) was 0.133. For the same compound, the Effect (CRLS1 Exon 5996007-5996136) was “Exc”, the T-PSI (CRLS1 Exon 5996007-5996136) was 0.889 and the ΔPSI (CRLS1 Exon 5996007-5996136) was −0.103. The Effect (CRNDE Exon 54954210-54954250) was “Exc”, the T-PSI (CRNDE Exon 54954210-54954250) was 0.867 and the ΔPSI (CRNDE Exon 54954210-54954250) was −0.106. For the same compound, the Effect (CRYZ Exon 75172787-75172888) was “Exc”, the T-PSI (CRYZ Exon 75172787-75172888) was 0.322 and the ΔPSI (CRYZ Exon 75172787-75172888) was −0.516. The Effect (CRYZ Exon 75196066-75196104) was “Exc”, the T-PSI (CRYZ Exon 75196066-75196104) was 0.091 and the ΔPSI (CRYZ Exon 75196066-75196104) was −0.105. The Effect (CSAD Exon 53554911-53554975) was “Exc”, the T-PSI (CSAD Exon 53554911-53554975) was 0.224 and the ΔPSI (CSAD Exon 53554911-53554975) was −0.174. The Effect (CSDE1 Exon 115280092-115280184) was “Unc”, the T-PSI (CSDE1 Exon 115280092-115280184) was 0.096 and the ΔPSI (CSDE1 Exon 115280092-115280184) was −0.008. For the same compound, the Effect [1] was “Unc”, the T-PSI [1] was 0.116 and the ΔPSI [1] was 0.003. The Effect (CTDSPL Exon 37998602-37998634) was “Exc”, the T-PSI (CTDSPL Exon 37998602-37998634) was 0.336 and the ΔPSI (CTDSPL Exon 37998602-37998634) was −0.261. The Effect (CTIF Exon 46066129-46066202) was “Unc”, the T-PSI (CTIF Exon 46066129-46066202) was 0.241 and the ΔPSI (CTIF Exon 46066129-46066202) was 0.006. The Effect (CTSB Exon 11721885-11721972) was “Unc”, the T-PSI (CTSB Exon 11721885-11721972) was 0.219 and the ΔPSI (CTSB Exon 11721885-11721972) was −0.001. For the same compound, the Effect (CUTC Exon 101510126-101510153) was “Exc”, the T-PSI (CUTC Exon 101510126-101510153) was 0.240 and the ΔPSI (CUTC Exon 101510126-101510153) was −0.269. The Effect (CWC25 Exon 36966529-36966653) was “Exc”, the T-PSI (CWC25 Exon 36966529-36966653) was 0.024 and the ΔPSI (CWC25 Exon 36966529-36966653) was −0.157. The Effect [2] was “Exc”, the T-PSI [2] was 0.823 and the ΔPSI [2] was −0.136. The Effect (CYLD Exon 50778641-50778777) was “Inc”, the T-PSI (CYLD Exon 50778641-50778777) was 0.856 and the ΔPSI (CYLD Exon 50778641-50778777) was 0.415. For the same compound, the Effect [3] was “Exc”, the T-PSI [3] was 0.410 and the ΔPSI [3] was −0.290. The Effect [4] was “Exc”, the T-PSI [4] was 0.830 and the ΔPSI [4] was −0.145. For the same compound, the Effect (DAB2 Exon 39417291-39417386) was “Inc”, the T-PSI (DAB2 Exon 39417291-39417386) was 0.334 and the ΔPSI (DAB2 Exon 39417291-39417386) was 0.196. The Effect (DBT Exon 100672001-100672192) was “Exc”, the T-PSI (DBT Exon 100672001-100672192) was 0.880 and the ΔPSI (DBT Exon 100672001-100672192) was −0.103. For the same compound, the Effect (DCAF8 Exon 160213750-160213824) was “Unc”, the T-PSI (DCAF8 Exon 160213750-160213824) was 0.899 and the ΔPSI (DCAF8 Exon 160213750-160213824) was −0.009. For the same compound, the Effect (DCAF8 Exon 160231075-160231148) was “Inc”, the T-PSI (DCAF8 Exon 160231075-160231148) was 0.864 and the ΔPSI (DCAF8 Exon 160231075-160231148) was 0.102. The Effect (DCAF10 Exon 37842086-37842283) was “Exc”, the T-PSI (DCAF10 Exon 37842086-37842283) was 0.533 and the ΔPSI (DCAF10 Exon 37842086-37842283) was −0.128. The Effect (DCAF11 Exon 24586877-24586941) was “Exc”, the T-PSI (DCAF11 Exon 24586877-24586941) was 0.828 and the ΔPSI (DCAF11 Exon 24586877-24586941) was −0.154. For the same compound, the Effect [5] was “Exc”, the T-PSI [5] was 0.826 and the ΔPSI [5] was −0.135. The Effect (DCP1A Exon 53338207-53338320) was “Inc”, the T-PSI (DCP1A Exon 53338207-53338320) was 0.990 and the ΔPSI (DCP1A Exon 53338207-53338320) was 0.100. The Effect [6] was “Unc”, the T-PSI [6] was 0.122 and the ΔPSI [6] was −0.004. The Effect [7] was “Unc”, the T-PSI [7] was 0.235 and the ΔPSI [7] was 0.003. For the same compound, the Effect [8] was “Inc”, the T-PSI [8] was 0.993 and the ΔPSI [8] was 0.137. For the same compound, the Effect (DDB2 Exon 47256308-47256485) was “Exc”, the T-PSI (DDB2 Exon 47256308-47256485) was 0.772 and the ΔPSI (DDB2 Exon 47256308-47256485) was −0.151. For the same compound, the Effect (DGKA Exon 56332295-56332344) was “Exc”, the T-PSI (DGKA Exon 56332295-56332344) was 0.873 and the ΔPSI (DGKA Exon 56332295-56332344) was −0.126. The Effect (DGUOK Exon 74166037-74166149) was “Unc”, the T-PSI (DGUOK Exon 74166037-74166149) was 0.287 and the ΔPSI (DGUOK Exon 74166037-74166149) was 0.002. The Effect (DHRSX Exon 2310395-2310515) was “Exc”, the T-PSI (DHRSX Exon 2310395-2310515) was 0.024 and the ΔPSI (DHRSX Exon 2310395-2310515) was −0.103. For the same compound, the Effect (DIMT1 Exon 61687998-61688061) was “Exc”, the T-PSI (DIMT1 Exon 61687998-61688061) was 0.851 and the ΔPSI (DIMT1 Exon 61687998-61688061) was −0.140. The Effect (DIS3 Exon 73354984-73355141) was “Inc”, the T-PSI (DIS3 Exon 73354984-73355141) was 0.720 and the ΔPSI (DIS3 Exon 73354984-73355141) was 0.183. For the same compound, the Effect (DIS3 Exon 73355427-73355494) was “Exc”, the T-PSI (DIS3 Exon 73355427-73355494) was 0.170 and the ΔPSI (DIS3 Exon 73355427-73355494) was −0.168. The Effect (DLG1 Exon 196888511-196888609) was “Exc”, the T-PSI (DLG1 Exon 196888511-196888609) was 0.500 and the ΔPSI (DLG1 Exon 196888511-196888609) was −0.113. The Effect [9] was “Unc”, the T-PSI [9] was 0.834 and the ΔPSI [9] was 0.002. The Effect (DMD Exon 31196049-31196087) was “Exc” and the T-PSI (DMD Exon 31196049-31196087) was 0.086.
